Reference: the supplement of paper PMC10849652
This is one part of the list. Residues, ends and D or L forms follow the SMILES beside them. *: point of attachment. Cbz = O=C(OCc1ccccc1)*

Amino acid sequences for entries named in this document (tags omitted). A change or cut given only in a name is not applied to a line headed by its entry.
UniProt Q9UNX4: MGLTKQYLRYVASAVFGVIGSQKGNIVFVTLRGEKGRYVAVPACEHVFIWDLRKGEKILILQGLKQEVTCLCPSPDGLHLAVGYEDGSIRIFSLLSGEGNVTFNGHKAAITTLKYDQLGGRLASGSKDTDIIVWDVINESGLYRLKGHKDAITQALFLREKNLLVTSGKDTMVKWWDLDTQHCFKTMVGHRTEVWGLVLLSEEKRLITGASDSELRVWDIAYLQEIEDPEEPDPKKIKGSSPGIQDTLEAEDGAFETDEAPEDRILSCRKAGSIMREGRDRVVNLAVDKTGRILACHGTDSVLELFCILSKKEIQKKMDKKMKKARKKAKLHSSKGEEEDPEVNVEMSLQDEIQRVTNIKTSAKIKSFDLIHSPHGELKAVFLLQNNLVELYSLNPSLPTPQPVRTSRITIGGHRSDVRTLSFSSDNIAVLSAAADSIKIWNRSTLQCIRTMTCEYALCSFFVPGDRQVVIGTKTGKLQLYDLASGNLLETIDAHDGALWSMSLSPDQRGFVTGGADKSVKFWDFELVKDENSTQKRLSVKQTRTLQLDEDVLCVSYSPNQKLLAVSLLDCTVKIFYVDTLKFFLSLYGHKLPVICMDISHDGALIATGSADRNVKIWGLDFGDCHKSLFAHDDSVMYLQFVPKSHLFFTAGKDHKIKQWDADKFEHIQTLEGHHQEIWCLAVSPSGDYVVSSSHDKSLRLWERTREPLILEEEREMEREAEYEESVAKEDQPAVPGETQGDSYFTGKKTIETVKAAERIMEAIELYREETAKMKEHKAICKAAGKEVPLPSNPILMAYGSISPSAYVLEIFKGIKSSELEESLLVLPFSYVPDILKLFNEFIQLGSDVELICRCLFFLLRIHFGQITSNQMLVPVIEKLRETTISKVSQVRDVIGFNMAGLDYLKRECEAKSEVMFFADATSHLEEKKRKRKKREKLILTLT
UniProt Q5MNZ6: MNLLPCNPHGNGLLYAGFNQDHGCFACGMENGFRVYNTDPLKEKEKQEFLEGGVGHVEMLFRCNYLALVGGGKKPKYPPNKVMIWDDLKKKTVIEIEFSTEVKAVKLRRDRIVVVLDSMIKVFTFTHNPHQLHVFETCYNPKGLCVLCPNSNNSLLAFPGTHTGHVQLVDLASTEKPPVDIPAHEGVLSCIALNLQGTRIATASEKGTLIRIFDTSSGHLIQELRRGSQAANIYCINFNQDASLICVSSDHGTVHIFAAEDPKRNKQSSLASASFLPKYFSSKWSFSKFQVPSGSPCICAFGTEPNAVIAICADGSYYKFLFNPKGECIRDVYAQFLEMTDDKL
UniProt Q5MNZ9: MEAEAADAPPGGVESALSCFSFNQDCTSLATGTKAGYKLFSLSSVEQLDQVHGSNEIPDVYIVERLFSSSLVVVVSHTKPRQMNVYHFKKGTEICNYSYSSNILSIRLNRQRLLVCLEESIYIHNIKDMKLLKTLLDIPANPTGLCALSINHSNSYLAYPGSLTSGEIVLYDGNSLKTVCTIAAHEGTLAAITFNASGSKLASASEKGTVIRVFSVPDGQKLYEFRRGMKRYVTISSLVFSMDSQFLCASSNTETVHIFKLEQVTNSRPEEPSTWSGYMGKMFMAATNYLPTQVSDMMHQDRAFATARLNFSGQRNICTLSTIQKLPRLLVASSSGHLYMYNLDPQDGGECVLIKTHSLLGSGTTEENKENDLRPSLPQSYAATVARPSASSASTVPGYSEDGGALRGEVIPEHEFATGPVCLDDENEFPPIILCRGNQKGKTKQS
UniProt Q6VEQ5: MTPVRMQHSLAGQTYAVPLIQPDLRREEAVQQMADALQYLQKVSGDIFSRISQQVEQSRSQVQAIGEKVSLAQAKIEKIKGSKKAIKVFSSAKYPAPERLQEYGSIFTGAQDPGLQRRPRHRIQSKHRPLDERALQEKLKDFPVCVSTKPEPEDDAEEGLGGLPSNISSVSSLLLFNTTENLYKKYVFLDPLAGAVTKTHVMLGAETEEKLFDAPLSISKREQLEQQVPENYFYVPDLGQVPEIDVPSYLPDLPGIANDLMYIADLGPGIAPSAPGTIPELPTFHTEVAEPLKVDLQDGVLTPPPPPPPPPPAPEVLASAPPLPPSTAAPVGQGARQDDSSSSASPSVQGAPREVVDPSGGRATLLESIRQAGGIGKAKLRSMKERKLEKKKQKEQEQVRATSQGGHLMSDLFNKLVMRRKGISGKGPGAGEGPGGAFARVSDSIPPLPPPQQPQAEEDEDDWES
UniProt O95785: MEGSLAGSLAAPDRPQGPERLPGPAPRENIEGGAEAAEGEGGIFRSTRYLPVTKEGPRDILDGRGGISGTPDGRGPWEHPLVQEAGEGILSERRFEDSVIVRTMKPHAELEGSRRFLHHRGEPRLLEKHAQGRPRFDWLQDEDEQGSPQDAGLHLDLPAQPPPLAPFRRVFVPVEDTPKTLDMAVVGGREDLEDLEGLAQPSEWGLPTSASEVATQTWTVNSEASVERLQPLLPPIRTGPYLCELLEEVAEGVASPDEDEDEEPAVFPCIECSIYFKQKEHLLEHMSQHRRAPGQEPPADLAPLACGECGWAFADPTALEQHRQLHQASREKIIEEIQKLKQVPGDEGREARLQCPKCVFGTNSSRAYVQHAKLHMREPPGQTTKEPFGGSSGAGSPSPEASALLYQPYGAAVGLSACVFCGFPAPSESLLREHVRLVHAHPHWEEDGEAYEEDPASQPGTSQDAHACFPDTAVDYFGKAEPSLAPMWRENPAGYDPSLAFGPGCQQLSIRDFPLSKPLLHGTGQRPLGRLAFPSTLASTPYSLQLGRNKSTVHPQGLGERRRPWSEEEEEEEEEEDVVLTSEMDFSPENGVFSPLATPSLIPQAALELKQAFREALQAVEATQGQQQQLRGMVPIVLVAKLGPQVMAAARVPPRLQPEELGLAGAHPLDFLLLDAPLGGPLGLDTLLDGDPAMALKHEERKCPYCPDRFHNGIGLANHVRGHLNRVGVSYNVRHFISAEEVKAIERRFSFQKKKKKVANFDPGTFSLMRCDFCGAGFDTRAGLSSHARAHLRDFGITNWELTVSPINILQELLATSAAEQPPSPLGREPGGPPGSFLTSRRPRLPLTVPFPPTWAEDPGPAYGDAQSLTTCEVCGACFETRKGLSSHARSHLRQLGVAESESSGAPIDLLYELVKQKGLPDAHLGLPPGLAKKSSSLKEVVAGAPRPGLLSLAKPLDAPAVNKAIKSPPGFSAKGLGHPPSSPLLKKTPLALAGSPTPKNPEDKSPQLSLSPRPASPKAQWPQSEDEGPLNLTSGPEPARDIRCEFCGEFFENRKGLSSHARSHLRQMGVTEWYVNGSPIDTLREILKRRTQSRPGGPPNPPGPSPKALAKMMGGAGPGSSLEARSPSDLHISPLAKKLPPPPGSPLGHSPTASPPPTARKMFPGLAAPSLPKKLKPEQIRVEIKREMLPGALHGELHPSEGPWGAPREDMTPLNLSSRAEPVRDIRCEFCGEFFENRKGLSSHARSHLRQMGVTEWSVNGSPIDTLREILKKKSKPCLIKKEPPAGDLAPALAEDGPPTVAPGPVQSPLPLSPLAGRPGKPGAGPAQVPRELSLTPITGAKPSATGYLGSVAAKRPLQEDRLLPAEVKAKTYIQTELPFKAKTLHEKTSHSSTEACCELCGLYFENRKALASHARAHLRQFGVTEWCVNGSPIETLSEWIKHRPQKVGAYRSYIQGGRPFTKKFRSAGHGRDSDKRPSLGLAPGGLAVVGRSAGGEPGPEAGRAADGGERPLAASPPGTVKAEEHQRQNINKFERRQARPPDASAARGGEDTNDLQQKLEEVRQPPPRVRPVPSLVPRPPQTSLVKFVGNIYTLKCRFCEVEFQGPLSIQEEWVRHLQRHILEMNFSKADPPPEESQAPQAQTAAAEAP
UniProt P08670, whole entry, looked up: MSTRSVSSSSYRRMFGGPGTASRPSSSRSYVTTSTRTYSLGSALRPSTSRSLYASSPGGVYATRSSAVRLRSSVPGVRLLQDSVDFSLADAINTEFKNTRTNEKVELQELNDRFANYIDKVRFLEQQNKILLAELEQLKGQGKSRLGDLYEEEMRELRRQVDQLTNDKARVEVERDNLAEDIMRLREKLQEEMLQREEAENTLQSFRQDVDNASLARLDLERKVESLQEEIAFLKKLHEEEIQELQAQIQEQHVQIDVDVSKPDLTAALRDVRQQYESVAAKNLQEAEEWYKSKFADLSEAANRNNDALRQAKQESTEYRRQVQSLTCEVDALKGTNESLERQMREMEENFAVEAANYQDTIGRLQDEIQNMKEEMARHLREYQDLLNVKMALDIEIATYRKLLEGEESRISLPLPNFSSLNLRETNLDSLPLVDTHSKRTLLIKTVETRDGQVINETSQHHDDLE
UniProt Q9HBM0: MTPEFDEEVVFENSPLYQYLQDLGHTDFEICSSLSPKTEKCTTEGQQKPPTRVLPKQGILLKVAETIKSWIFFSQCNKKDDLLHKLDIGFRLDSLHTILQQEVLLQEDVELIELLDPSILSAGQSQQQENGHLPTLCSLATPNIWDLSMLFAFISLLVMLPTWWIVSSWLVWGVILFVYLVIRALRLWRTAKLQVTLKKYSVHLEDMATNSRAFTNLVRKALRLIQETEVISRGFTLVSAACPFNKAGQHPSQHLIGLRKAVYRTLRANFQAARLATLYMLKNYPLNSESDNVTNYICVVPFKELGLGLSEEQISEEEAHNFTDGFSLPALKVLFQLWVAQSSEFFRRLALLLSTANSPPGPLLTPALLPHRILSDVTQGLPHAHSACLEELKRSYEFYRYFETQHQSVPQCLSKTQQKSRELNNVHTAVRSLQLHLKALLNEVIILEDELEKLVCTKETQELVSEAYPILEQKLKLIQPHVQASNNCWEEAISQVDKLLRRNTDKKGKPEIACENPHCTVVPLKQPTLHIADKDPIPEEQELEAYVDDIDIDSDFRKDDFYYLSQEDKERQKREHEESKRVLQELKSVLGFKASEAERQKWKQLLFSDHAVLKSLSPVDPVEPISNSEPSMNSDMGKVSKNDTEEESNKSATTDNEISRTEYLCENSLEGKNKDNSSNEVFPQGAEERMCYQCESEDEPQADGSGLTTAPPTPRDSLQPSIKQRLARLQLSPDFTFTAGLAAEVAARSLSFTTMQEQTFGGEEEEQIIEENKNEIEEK
UniProt Q8N9V3: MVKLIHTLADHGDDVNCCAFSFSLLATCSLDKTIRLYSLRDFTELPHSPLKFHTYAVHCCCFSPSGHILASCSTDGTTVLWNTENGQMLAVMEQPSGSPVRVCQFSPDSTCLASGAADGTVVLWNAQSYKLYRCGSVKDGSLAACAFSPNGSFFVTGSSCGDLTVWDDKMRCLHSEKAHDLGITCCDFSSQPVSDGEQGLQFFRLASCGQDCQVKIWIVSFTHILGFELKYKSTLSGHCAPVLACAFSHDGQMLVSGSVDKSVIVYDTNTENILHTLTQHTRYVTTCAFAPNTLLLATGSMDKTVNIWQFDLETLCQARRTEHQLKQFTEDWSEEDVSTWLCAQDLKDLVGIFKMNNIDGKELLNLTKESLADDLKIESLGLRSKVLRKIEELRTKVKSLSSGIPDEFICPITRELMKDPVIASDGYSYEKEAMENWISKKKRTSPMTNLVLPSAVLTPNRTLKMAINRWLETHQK
UniProt O94967: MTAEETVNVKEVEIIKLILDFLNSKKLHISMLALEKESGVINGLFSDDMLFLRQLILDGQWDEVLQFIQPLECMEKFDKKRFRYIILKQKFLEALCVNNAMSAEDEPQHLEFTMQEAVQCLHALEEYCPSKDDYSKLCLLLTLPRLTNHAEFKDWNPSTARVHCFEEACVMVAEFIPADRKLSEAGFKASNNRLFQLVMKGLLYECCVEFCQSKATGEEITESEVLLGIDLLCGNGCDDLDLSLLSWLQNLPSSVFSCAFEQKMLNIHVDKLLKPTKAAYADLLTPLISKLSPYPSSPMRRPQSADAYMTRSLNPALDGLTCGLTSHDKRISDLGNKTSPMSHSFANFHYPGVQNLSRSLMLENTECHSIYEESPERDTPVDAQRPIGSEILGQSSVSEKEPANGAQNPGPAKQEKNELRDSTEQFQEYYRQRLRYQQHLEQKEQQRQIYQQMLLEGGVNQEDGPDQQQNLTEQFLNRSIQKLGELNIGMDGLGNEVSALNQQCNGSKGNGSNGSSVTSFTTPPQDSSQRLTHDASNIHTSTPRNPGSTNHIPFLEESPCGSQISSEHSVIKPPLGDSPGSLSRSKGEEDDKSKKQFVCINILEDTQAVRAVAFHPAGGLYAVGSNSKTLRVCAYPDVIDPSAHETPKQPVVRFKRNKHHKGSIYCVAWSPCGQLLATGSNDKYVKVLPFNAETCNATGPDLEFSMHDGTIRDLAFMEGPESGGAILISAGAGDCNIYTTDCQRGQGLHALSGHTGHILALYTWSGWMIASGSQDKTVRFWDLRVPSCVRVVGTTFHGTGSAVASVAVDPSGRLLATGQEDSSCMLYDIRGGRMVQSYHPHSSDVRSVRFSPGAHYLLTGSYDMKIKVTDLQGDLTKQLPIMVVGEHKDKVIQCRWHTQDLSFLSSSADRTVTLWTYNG

Key:
Assay in all cases: log2 fold change, soluble protein after heating vs DMSO (PISA); higher = thermal stabilisation; K562 cells, 10 uM, 30 min; active = over 0.2 and 3.5 SD of the protein, either way, in both replicates (recomputed)
erlotinib = compound: C#Cc1cccc(Nc2ncnc3cc(OCCOC)c(OCCOC)cc23)c1 [erlotinib]
Outline: (§1)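 K562 cells at 2×10^6 cells/mL were treated for 30 min with 10 μM compound, and aliquots were heated for 3 min over 48°C-58°C before pooling. Extraction used PBS with 0.5% NP-40 at 4°C, and soluble protein was the supernatant after 21,000xg for 90 min, measured by TMTpro 16plex LC-MS/MS with channel sums equalised. Thermal stability values, relative to control samples and from duplicates, are log2 fold changes.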

[1] = compound: C/C(=N\NC(=O)C1=CC(=CC=C1)S(=O)(=O)N2CCOCC2)/C3=C(C=CC(=C3)Cl)O
Outline: as §1

[2] = compound: C1=CC(=C(C=C1Cl)C2=NC3=NC=CN=C3C(=N2)NC4=CC=NC=C4)F
Outline: as §1

[3] = compound: C1=CC(=CC=C1C2=NC3=C(N2)C=C(C=C3)C(=O)N)OC4=CC=C(C=C4)Cl
Outline: as §1

[4] = compound: C1=CC2=C(C=CC(=C2)/C=C\3/C(=O)NC(=NCC4=CC=CS4)S3)N=C1
Outline: as §1

[5] = compound: C1=CC2=NC=CN=C2C=C1/C=C/3\C(=O)NC(=O)S3
Outline: as §1

[6] = compound: C1=CC=C(C=C1)C2=NC(=C(N2)C3=CC=NC=C3)C4=CC(=C(C=C4)Cl)O
Outline: as §1

[7] = compound: C1=CC=C2C(=C1)C3=NNC4=CC=CC(=C43)C2=O
Outline: as §1

[8] = compound: C1CCN(C1)C(=O)NC2=CC=CC(=C2)NC3=NC=C(C(=N3)NCCC4=CN=CN4)Br
Outline: as §1

[9] = compound: C1CN(CCC1(CC2=CC=C(C=C2)Cl)N)C3=NC=NC4=C3C=CN4
Outline: as §1

IRAK-1-4 Inhibitor I = compound: C1COCCN1CCN2C3=CC=CC=C3N=C2NC(=O)C4=CC(=CC=C4)[N+](=O)[O-] [IRAK-1-4 Inhibitor I]
Outline: as §1

ibrutinib = compound: C=CC(=O)N1CCC[C@@H](n2nc(-c3ccc(Oc4ccccc4)cc3)c3c(N)ncnc32)C1 [ibrutinib]
Outline: as §1

[10] = compound: CC(=O)c1cnc2ccc(-c3cc(Cl)c(O)c(Cl)c3)nc2c1N[C@H]1CC[C@H](CN(C)C)CC1
Outline: as §1

ralimetinib = compound: CC(C)(C)Cn1c(N)nc2ccc(-c3[nH]c(C(C)(C)C)nc3-c3ccc(F)cc3)nc21 [ralimetinib]
Outline: as §1

[11] = compound: CC(C)(O)CC(=O)NCCn1ccc2ncnc(Nc3ccc(Oc4cccc(C(F)(F)F)c4)c(Cl)c3)c21
Outline: as §1

[12] = compound: CC(C)C1=C2N=C(C=C(N2N=C1)NCC3=CC=CC=C3)NCCCCCCN
Outline: as §1

[13] = compound: CC(C)C[C@@H](C=O)NC(=O)[C@H](CC(C)C)NC(=O)[C@H](CC(C)C)NC(=O)OCc1ccccc1
Outline: as §1

pinometostat = compound: CC(C)N(C[C@H]1O[C@@H](n2cnc3c(N)ncnc32)[C@H](O)[C@@H]1O)[C@H]1C[C@@H](CCc2nc3cc(C(C)(C)C)ccc3[nH]2)C1 [pinometostat]
Outline: as §1

[14] = compound: CC1=C(C(CC(=O)N1)C2=CC=C(C=C2)C(F)(F)F)C(=O)NC3=C(C=C4C(=C3)C=NN4)F
Outline: as §1

[15] = compound: CC1=C(C2=C(C=C1)C(=O)C3=CC=CC=C3N2CCCN)C
Outline: as §1

Target	log2 fold change (erlotinib)	log2 fold change [1]	log2 fold change [2]	log2 fold change [3]	log2 fold change [4]	log2 fold change [5]	log2 fold change [6]	log2 fold change [7]	log2 fold change [8]	log2 fold change [9]	log2 fold change (IRAK-1-4 Inhibitor I)	log2 fold change (ibrutinib)	log2 fold change [10]	log2 fold change (ralimetinib)	log2 fold change [11]	log2 fold change [12]	log2 fold change [13]	log2 fold change (pinometostat)	log2 fold change [14]	log2 fold change [15]
WDR3 (UniProt Q9UNX4)	inactive: -0.022	inactive: -0.171	inactive: -0.426	inactive: 0.114	inactive: -0.039	inactive: 0.008	inactive: 0.117	inactive: 0.121	inactive: 0.085	inactive: -0.231	inactive: -0.155	inactive: 0.063	inactive: 0.029	inactive: 0.273	inactive: 0.084	inactive: -0.006	inactive: 0.231	inactive: 0.341	inactive: -0.025	inactive: -0.165
WDR45B (UniProt Q5MNZ6)	inactive: 0.053	inactive: 0.031	inactive: 0.036	inactive: 0.025	inactive: -0.015	inactive: 0.03	inactive: -0.043	inactive: -0.071	inactive: -0.049	inactive: 0.064	inactive: 0.053	inactive: 0.02	inactive: 0.015	inactive: -0.082	inactive: 0.047	inactive: 0.034	inactive: 0.025	inactive: -0.008	inactive: 0.02	inactive: 0.044
VGLL4 isoform 4 (UniProt Q14135)	inactive: 0.045	inactive: -0.03	inactive: -0.008	inactive: 0.028	inactive: -0.092	inactive: 0.065	inactive: -0.086	inactive: 0.063	inactive: 0.091	inactive: -0.088	inactive: 0.042	inactive: 0.056	inactive: -0.097	inactive: 0.103	inactive: 0.016	inactive: 0.057	inactive: 0.157	inactive: 0.04	inactive: -0.049	inactive: -0.242
WIPI1 (UniProt Q5MNZ9)	inactive: -0.023	inactive: 0.034	inactive: 0.152	inactive: 0.025	inactive: 0.033	inactive: -0.046	inactive: -0.003	inactive: -0.071	inactive: 0.05	inactive: 0.026	inactive: 0.015	inactive: 0.015	inactive: 0	inactive: 0.072	inactive: 0.048	inactive: 0.101	inactive: 0.015	inactive: -0.075	inactive: -0.08	inactive: -0.099
WASH2P (UniProt Q6VEQ5)	inactive: 0.005	inactive: -0.02	inactive: -0.084	inactive: 0.003	inactive: 0.041	inactive: 0.038	inactive: 0.014	inactive: 0.011	inactive: 0.117	inactive: 0.013	inactive: 0.001	inactive: -0.049	inactive: 0.052	inactive: 0.022	inactive: 0.048	active: -0.234	inactive: 0.025	inactive: -0.016		inactive: 0.026
WIZ isoform 3 (UniProt O95785)	inactive: 0.053	inactive: -0.044	inactive: -0.036	inactive: 0.01	inactive: -0.056	inactive: 0.055	inactive: -0.027	inactive: 0.02	inactive: -0.012	inactive: 0.09	inactive: -0.044	inactive: -0.075	inactive: -0.043	inactive: 0.023	inactive: -0.011	inactive: -0.031	inactive: 0.005	inactive: 0.027	inactive: 0.061	inactive: 0.039
VIM (UniProt P08670)	inactive: -0.053	inactive: -0.146	inactive: -0.292	inactive: 0.141	inactive: -0.155	inactive: 0.084	inactive: -0.144	inactive: -0.111	inactive: 0.025	inactive: -0.168	inactive: -0.136	inactive: 0.2	inactive: 0.123	inactive: 0.217	inactive: 0.399	inactive: -0.029	inactive: 0.035	inactive: 0.168	inactive: 0.081	inactive: -0.257
VMP1 (UniProt Q96GC9)	inactive: 0.004	inactive: 0.006	inactive: 0.093	inactive: -0.026	inactive: 0.019	inactive: 0.06	inactive: -0.015	inactive: -0.019	inactive: -0.012	inactive: 0.018	inactive: -0.009	inactive: -0.014	inactive: -0.024	inactive: -0.033	inactive: -0.089	inactive: 0.027	inactive: -0.034	inactive: 0.001	inactive: 0.004	inactive: -0.015
WIZ (UniProt O95785)	inactive: 0.016	inactive: 0.027	inactive: -0.054	inactive: 0.016	inactive: 0.02	inactive: 0.023	inactive: 0.029	inactive: -0.069	inactive: -0.068	inactive: 0.009	inactive: -0.013	inactive: 0.014	inactive: -0.187	inactive: 0.053	inactive: -0.081	inactive: -0.047	inactive: 0.01	inactive: 0.032	inactive: 0.059	inactive: 0.044
WRNIP1 (UniProt Q96S55)	inactive: 0.108	inactive: 0.186	inactive: 0.065	inactive: -0.181	inactive: 0.126	inactive: 0.001	inactive: 0.025	inactive: -0.06	inactive: 0	inactive: -0.138	inactive: -0.049	inactive: -0.144	inactive: -0.362	inactive: 0.007	inactive: -0.409	inactive: -0.388	inactive: -0.041	inactive: 0.06	inactive: 0.028	inactive: -0.142
WDTC1 (UniProt Q8N5D0)	inactive: 0.024	inactive: 0.066	inactive: -0.089	inactive: 0.026	inactive: 0.037	inactive: 0.061	inactive: -0.035	inactive: 0.077	inactive: -0.137	inactive: -0.005	inactive: -0.077	inactive: 0.043	inactive: 0.072	inactive: -0.021	inactive: -0.015	inactive: 0.014	inactive: 0.038	inactive: 0.056	inactive: 0.014	inactive: 0.172
VKORC1L1, A0A3B3ISV4	inactive: -0.043	inactive: -0.009	inactive: 0.027	inactive: -0.008	inactive: 0.036	inactive: 0.01	inactive: 0.097	inactive: 0.031	inactive: -0.038	inactive: 0.042	inactive: -0.044	inactive: -0.033	inactive: -0.041	inactive: -0.173	inactive: -0.049	inactive: 0.047	inactive: -0.156	inactive: -0.11	inactive: 0.032	inactive: 0.052
WDR1 (UniProt O75083)	inactive: -0.019	inactive: 0.077	inactive: 0.071	inactive: 0.023	inactive: 0.062	inactive: -0.015	inactive: 0.054	inactive: 0.007	inactive: 0.015	inactive: -0.007	inactive: 0.015	inactive: 0.002	inactive: -0.006	inactive: -0.028	inactive: -0.041	inactive: -0.049	inactive: -0.034	inactive: -0.011	inactive: -0.026	inactive: 0.066
VEZT (UniProt Q9HBM0)	inactive: -0.06	inactive: -0.069	inactive: 0.15	inactive: 0.065	inactive: 0.007	inactive: -0.067	inactive: -0.007	inactive: -0.045	inactive: -0.025	inactive: -0.025	inactive: -0.041	inactive: 0.197	inactive: 0.015	inactive: -0.009	inactive: 0.002	inactive: -0.201	inactive: 0.149	inactive: -0.019	inactive: 0.041	inactive: -0.095
WDSUB1 (UniProt Q8N9V3)	inactive: 0.035	inactive: -0.009	inactive: 0.021	inactive: 0.028	inactive: 0.035	inactive: 0.017	inactive: -0.031	inactive: -0.003	inactive: -0.029	inactive: -0.02	inactive: -0.013	inactive: 0.027	inactive: 0.003	inactive: -0.028	inactive: -0.066	inactive: 0.053	inactive: -0.011	inactive: -0.025	inactive: 0.017	inactive: 0.022
WDR47 (UniProt O94967)	inactive: 0.038	inactive: 0.065	inactive: -0.014	inactive: -0.002	inactive: -0.002	inactive: 0.06	inactive: 0.047	inactive: 0	inactive: 0.013	inactive: 0.006	inactive: -0.089	inactive: 0.055	inactive: 0.028	inactive: -0.005	inactive: -0.03	inactive: 0.028	inactive: -0.048	inactive: -0.017		inactive: 0.015

No new results follow: entries from further up.
Target	log2 fold change (erlotinib)	log2 fold change [1]	log2 fold change [2]	log2 fold change [3]	log2 fold change [4]	log2 fold change [5]	log2 fold change [6]	log2 fold change [7]	log2 fold change [8]	log2 fold change [9]	log2 fold change (IRAK-1-4 Inhibitor I)	log2 fold change (ibrutinib)	log2 fold change [10]	log2 fold change (ralimetinib)	log2 fold change [11]	log2 fold change [12]	log2 fold change [13]	log2 fold change (pinometostat)	log2 fold change [14]	log2 fold change [15]
WASH2P (UniProt Q6VEQ5)	inactive: 0.005	inactive: -0.02	inactive: -0.084	inactive: 0.003	inactive: 0.041	inactive: 0.038	inactive: 0.014	inactive: 0.011	inactive: 0.117	inactive: 0.013	inactive: 0.001	inactive: -0.049	inactive: 0.052	inactive: 0.022	inactive: 0.048	active: -0.234	inactive: 0.025	inactive: -0.016		inactive: 0.026
WIZ isoform 3 (UniProt O95785)	inactive: 0.053	inactive: -0.044	inactive: -0.036	inactive: 0.01	inactive: -0.056	inactive: 0.055	inactive: -0.027	inactive: 0.02	inactive: -0.012	inactive: 0.09	inactive: -0.044	inactive: -0.075	inactive: -0.043	inactive: 0.023	inactive: -0.011	inactive: -0.031	inactive: 0.005	inactive: 0.027	inactive: 0.061	inactive: 0.039
